Values from PubChem BioAssay AID1259254 (NCATS, 2017).

Assay: 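Finding genes that stop cells copying their DNA twice in one cycle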 (primary screen)
Cell system: human HCT116 colorectal cancer cells
Reagent: single siRNA against human genes
Time to read-out: 3 days
Detection: 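Imaged Hoechst DNA stain sorts each cell into a cycle phase by DNA amount; per plate, G2 fraction set to 0% for non-targeting and 100% for GMNN siRNA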
Reading the numbers: G2 robust z-score and G2 cells, % of GMNN control: higher = more G2 cells, more excess DNA replication; raw share of cells in G2: higher = larger share of cells with G2 DNA content
Hit rule: 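An siRNA counts as active if its G2 robust z-score lies at least 5 MADs above the screen median; here such calls match roughly 38% of GMNN control or more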
Here is a random part of about 59,000 deposited reagents. Of all reagents, about 1,550 (2.6%) got an active call. 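G2 share is only a proxy for re-replication; each gene was hit by three separate siRNAs, and active genes were retested.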 Raw values are not corrected between plates. Reagents against one gene are numbered here. The record does not give: the amount of reagent.

The first 3 records, ahead of the listing:
no.	Gene	reagent no.	G2 robust z-score	G2 cells, % of GMNN control	raw share of cells in G2 (%)	call
1	PSMA6P2	1	1.6	14.2	8.37	inactive
2	PSMA6P2	2	0.19	4.3	5.78	inactive
3	PSMA6P2	3	-0.18	1.7	3.79	inactive

Results, repeating the preview:
no.	Gene	reagent no.	G2 robust z-score	G2 cells, % of GMNN control	raw share of cells in G2 (%)	call
1	PSMA6P2	1	1.6	14.2	8.37	inactive
2	PSMA6P2	2	0.19	4.3	5.78	inactive
3	PSMA6P2	3	-0.18	1.7	3.79	inactive
4	SH3RF3	1	-0.315	0.75	4.24	inactive
5	SH3RF3	2	0.265	4.83	5.37	inactive
6	SH3RF3	3	-0.905	-3.4	2.82	inactive
7	NHLRC2	1	-0.721	-2.11	4.99	inactive
8	NHLRC2	2	-0.806	-2.7	3.9	inactive
9	NHLRC2	3	-0.798	-2.65	3.32	inactive
10	CNOT6	1	1.38	12.7	8.83	inactive
11	CNOT6	2	-1.02	-4.24	3.89	inactive
12	CNOT6	3	0.374	5.6	6.33	inactive
13	GUCA2B	1	-0.0911	2.33	5.05	inactive
14	GUCA2B	2	-0.39	0.22	5.12	inactive
15	GUCA2B	3	5.59	42.3	21.8	active
16	METTL9	1	0.385	5.68	6.02	inactive
17	METTL9	2	0.829	8.8	7.88	inactive
18	METTL9	3	0.0553	3.36	4.31	inactive
19	TRIM55	1	1.56	13.9	9.94	inactive
20	TRIM55	2	-1.29	-6.14	1.97	inactive
21	TRIM55	3	2.13	17.9	12.9	inactive
22	SLC38A7	1	-0.548	-0.891	4.18	inactive
23	SLC38A7	2	0.549	6.83	6.97	inactive
24	SLC38A7	3	-0.29	0.925	3.43	inactive
25	HSCB	1	2.86	23.1	11.6	inactive
26	HSCB	2	0.468	6.26	4.85	inactive
27	HSCB	3	-0.665	-1.71	2.47	inactive
28	ADAMTS5	1	6.33	47.5	22.1	active
29	ADAMTS5	2	1.66	14.7	10.1	inactive
30	ADAMTS5	3	0.188	4.29	5.51	inactive
31	PLAAT4	1	-0.689	-1.88	4.33	inactive
32	PLAAT4	2	-0.0704	2.47	5.62	inactive
33	PLAAT4	3	5.21	39.6	17.3	active
34	SCUBE3	1	-0.716	-2.07	2.38	inactive
35	SCUBE3	2	1.47	13.3	7.78	inactive
36	SCUBE3	3	0.0356	3.22	4.65	inactive
37	BAAT	1	0.434	6.02	7.22	inactive
38	BAAT	2	0.0152	3.07	5.14	inactive
39	BAAT	3	1.69	14.8	9.77	inactive
40	HTN1	1	-0.386	0.252	3.62	inactive
41	HTN1	2	0.375	5.6	7.93	inactive
42	HTN1	3	-0.172	1.76	4.73	inactive
43	NSUN2	1	-0.994	-4.02	4.67	inactive
44	NSUN2	2	-1.02	-4.24	2.92	inactive
45	NSUN2	3	1.37	12.6	9.58	inactive
46	SULT1C5P	1	-0.689	-1.88	3.2	inactive
47	SULT1C5P	2	3.91	30.5	12.3	inactive
48	SULT1C5P	3	0.131	3.89	4.42	inactive
49	S100A14	1	1.77	15.4	8.23	inactive
50	S100A14	2	-1.16	-5.18	3.57	inactive
51	S100A14	3	1.56	13.9	8.01	inactive
52	PIGV	1	-0.209	1.49	5.1	inactive
53	PIGV	2	0.844	8.91	7.83	inactive
54	PIGV	3	-0.791	-2.59	2.31	inactive
55	CLDN19	1	-0.483	-0.43	2.94	inactive
56	CLDN19	2	-0.461	-0.274	3.07	inactive
57	CLDN19	3	-0.448	-0.188	3.46	inactive
58	NAALADL2	1	1.75	15.3	9.12	inactive
59	NAALADL2	2	-0.823	-2.82	2.16	inactive
60	NAALADL2	3	-0.0169	2.85	4.1	inactive
61	LRRC78P	1	1.15	11.1	7.95	inactive
62	LRRC78P	2	1.26	11.8	7.61	inactive
63	LRRC78P	3	0.926	9.48	6.05	inactive
64	FAM216B	1	-0.669	-1.74	2.46	inactive
65	FAM216B	2	-0.491	-0.491	3.66	inactive
66	FAM216B	3	-0.219	1.42	3.35	inactive
67	SDR42E1	1	-0.722	-2.11	4.69	inactive
68	SDR42E1	2	0.271	4.88	6.32	inactive
69	SDR42E1	3	-0.158	1.86	5.76	inactive
